Laboratory results from PubChem BioAssay AID1347423 (Functional Genomics Laboratory (NCATS/FGL), 2020).
The campaign covered roughly 52,000 sequences. About 210 (0.4%) were called active.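 The calls were made as follows: active = gene whose silencing raises cell survival under the drug, median off-target-corrected z-score across its silencing RNAs 2 or more; inactive = the rest.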 The list shows a part of the results.

experiment: Resistance to Poly (ADP-Ribose) Polymerase inhibitor: Gene Identification via Genome-wide siRNA Screen; conditions: mouse BRCA2 R2336H ES cells, olaparib, CellTiter-Glo viability; active compounds read high
Outline: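 Mouse BRCA2 R2336H ES cells were reverse-transfected with siRNA (20 nM final), treated at 48 h with 500 nM olaparib, and read by CellTiter-Glo after 72 h. Scores: MAD-based z per siRNA, median per gene, seed off-target correction.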

| Sequence | z-score |
| --- | --- |
| GGUUUACCCUGCUCAUUUUTT against Fbxl6 | inactive: 0.679 |
| GCACACUACAACGUAUCACTT against B930007M17Rik | inactive: 0.0382 |
| GCUCGGACUGACCUUUAUGTT against Cnot7 | inactive: -1.91 |
| GGAGAGUGUUACAAAAAUUTT against Rcbtb1 | inactive: -2.06 |
| GGAGUUCAUUGUUUGGUUGTT against Nat2 | inactive: 0.111 |
| GGUUAUCUUUGGGACUUAATT against Lrmp | inactive: 0.395 |
| UCGCGUCCGCUAGAAUGUUTT against MGC69750 | inactive: -1.61 |
| GCCGGAAUCAAGAUUAUCATT against Foxm1 | inactive: -0.518 |
| GGUGGACUCGCUGAAGAGUTT against Krt2-1 | inactive: 0.407 |
| GGUUCUCCAGUGGUCUGACTT against Rab7l1 | inactive: -1.71 |
| CCUUACGUAACUGAACAAATT against 1500010G04Rik | inactive: 0.596 |
| GGAAUAUCUCUUUCAAUGATT against Msn | inactive: 0.339 |
| CCUCAUCAUAUUGAUGAGUTT against Ranbp3 | inactive: 0.405 |
| GGACUACAUGCUCACGUUATT against Ccm2 | inactive: -0.605 |
| GGGUAAACUUCAUGAUCCATT against Kif5b | inactive: -0.892 |
| GGUGAUGUACAACUUUUUGTT against Wdr34 | inactive: 0.894 |
| GGCUAUGCAAUGGAUCUGATT against Osbpl5 | inactive: -1.32 |
| GGAGCUUCUAGAGAAGAUCTT against Leng5 | inactive: -2.29 |
| GCAUCAACACCUGUUCUAUTT against Olfr376 | inactive: 0.319 |
| GGGAAAAUUCCAGAAUCGCTT against Musk | inactive: 0.606 |
| GCAUACGAUGGGAAUUGUATT against Wdr5b | inactive: -0.462 |
| GGAGAUCGCGUUCCUUAAGTT against Des | inactive: -0.389 |
| GGCUUAAAGGGUUUUCUGATT against Rnf13 | inactive: 1.29 |
| CGGCGUGUUUAUUUGCUAUTT against Rab27a | inactive: 0.166 |
| GGAGAUAAAAUUAUUCAGGTT against Erbb2ip | inactive: 0.876 |
| GGACAUCUUUGACAUUAUATT against Tubg2 | inactive: 0.452 |
| GGUACAGAAAAUCUCUAUGTT against 4921513E08Rik | inactive: 1.21 |

| Sequence | z-score |
| --- | --- |
| GGAAGAGCUGAAACAUUUGTT against E230025N22 | inactive: -2.15 |
| GGAAAAGAAGCAAAACUUCTT against Tulp2 | inactive: 0.515 |
| GGAAAAGCAGACUUGCACCTT against Npm2 | inactive: -1.07 |
| GGAGCUUAGAGGAACGAAUTT against Cyp2j9 | inactive: -0.343 |
| CCUAAAAGCAAGGCUGCCGTT against D8Ertd738e | inactive: 1.16 |
| GGCACAGGACUUUUAAUUUTT against Emx2 | inactive: 0.294 |
| CGGUUUAGAUCCCAACACUTT against Pitpnb | inactive: -0.467 |
| GGAAAAGCUGGAGGAAGACTT against Tef | inactive: -0.159 |
| GGAAAUCAAAAUCCUGAAGTT against Ulk1 | inactive: -0.869 |
| GGGACCCGGAAACAACACATT against Tyrobp | inactive: 0.504 |
| AAAGUCUUUCACUUUCUAUTT against Zfp457 | inactive: 1.42 |
| GGCCAUGUGACAUAAAAAATT against Lat | inactive: 0.821 |
| GGGCAUGUGGAUGACUGAUTT against AU067744 | inactive: -1.45 |
| GCUAAGUUAAGCUUAAUACTT against Rbl1 | inactive: -0.43 |
| GGUCAAUUAUGAAGCACCUTT against Pabpc4 | inactive: -0.381 |
| GCAACAUUGGAUGUACUCATT against Hdac10 | inactive: 4.01 |
| GGAAGAAGACUCAGAAAGUTT against Prkag2 | inactive: -0.116 |
| GCAGAUUGUGCAGCUAGCATT against Pax4 | inactive: 1.46 |
| GGCCUCUGUGGUGUUUAACTT against Omp | inactive: -1.51 |
| GCAGGAUUGCGUCCAUAUCTT against Mbd1 | inactive: -0.404 |
| GCUCUGGUUGCCAGUUAUGTT against LOC234374 | inactive: 0.442 |
| CCUACUGGAGUCUCCUCUUTT against C030022K24Rik | inactive: -2.81 |
| GGUACAAGGUCAUCAUGAGTT against Olfr1341 | inactive: -0.695 |
| GCUCUUGAAAUUUCACUCUTT against Ide | inactive: 0.986 |
| GGAAGUUGAGGCUUUGAAGTT against Bnip3l | inactive: 1.36 |
| GCUUACUAAGGUGAUAAUGTT against Il17d | inactive: 0.427 |
| GGGCCCUUAGAAAAUGUGUTT against 2810038K19Rik | inactive: -0.463 |

| Sequence | z-score |
| --- | --- |
| GGGAUGACUUGGAGUCUCUTT against Csnk1d | inactive: -0.832 |
| GGAAAUCAGCUGAAUUACUTT against Dicer1 | inactive: -0.73 |
| CCAUCACCGAAGUAAAAAATT against 1700129I15Rik | inactive: 0.492 |
| GGAUACAAGCCUUUUAACCTT against Sri | inactive: 0.749 |
| UCACAGUCAUCAUUGUUUCTT against Olfr825 | inactive: -0.312 |
| GGUGACCUAGAACCUACAGTT against Gtlf3a | inactive: -1.72 |
| GGCAGAUUUAGGGAAAUAATT against 1700009P17Rik | inactive: -2 |
| GGCUCUGAGAUUCGACUAGTT against P4hb | inactive: 0.386 |
| GGUAAACUCUUGAACAGUATT against Rai1 | inactive: -1.4 |
| GGUAUUACGUCAAAUGCCATT against Sec24a | inactive: -0.0731 |
| CUAGAUGCACAGAAUAGCATT against Prm1 | inactive: 0.203 |
| GGAGAAUGACAUCUUGAGCTT against 9030221A05Rik | inactive: 0.0836 |
| CCAGCUAUCUCAAAAUGAGTT against Sim1 | inactive: 1.17 |
| GGAACAAAGAGUUUAAGGATT against Olfr1415 | inactive: 1.08 |
| GGGAACAGGAGAAAACGGATT against Bnipl | inactive: 1.18 |
| GGUUUGGUGUACUUUUCAUTT against Akr1c6 | inactive: -0.0478 |
| GCUGGAGAUCAUCCUUCAGTT against Rph3al | inactive: 0.172 |
| CCUAUUGUCUGAUAGCCCUTT against Ms4a7 | inactive: -0.221 |
| GGGUCAAAGGAAUAAAACATT against Slc22a5 | inactive: -0.0966 |
| GGCUGUAUGGGCGAAUAACTT against Plxnd1 | inactive: -0.595 |
| GGUACUACUUAGUUUUACUTT against Creg | inactive: 1.61 |
| GGAGCAGAUUGCAUUUGAGTT against AW548124 | inactive: 0.281 |
| CAGCUGAGAUUGAUGGCCATT against Olfr313 | inactive: -2.2 |
| GCCGUUUAAAACUUGCUAUTT against Trpc6 | inactive: -0.117 |
| GCAAGAGUCUUGGCCCUCATT against BC023055 | inactive: -0.324 |
| GGAAGAUUUCUUCAAACGCTT against Lhx4 | inactive: 1.6 |
| GGGAAUUUGUGAGCUAGAATT against 2810452K22Rik | inactive: -2.95 |

| Sequence | z-score |
| --- | --- |
| GGCUUUCGCUGGGCAAAAUTT against Uts2 | inactive: -2.24 |
| GGAACAAAAAUGUUGACCATT against 2610009I02Rik | inactive: -0.0974 |
| GGUUUUGGACUUGAAUAACTT against Hectd2 | inactive: 0.446 |
| GGAGAUCCUGGAGAACUCUTT against Jph2 | inactive: -0.211 |
| GCAGUUGGCAUAUUUUAUGTT against Olfr1033 | inactive: -0.248 |
| GGCUCAUCUGACCAACCAGTT against Pabpc4 | inactive: 1.36 |
| GGAGGCAGAGCUGUCCAAATT against Timm13a | inactive: -1.11 |
| GGGAUGUGAAAUGCACCUUTT against 2310015N21Rik | inactive: -1.94 |
| GGGUGUAGAAAAGAAGAAATT against A530088I07Rik | inactive: -1.28 |
| GGGCACAGGCAACAUGCUUTT against 9430062J17Rik | inactive: 1.02 |
| GACUGGAGAACAGCAGUUGTT against Amh | inactive: -0.429 |
| GGACUUCAGCCUCAUCCUGTT against Bcap37 | inactive: -2.31 |
| GGUUACGAGAGAUGUUUGGTT against Sara2 | inactive: 1 |
| GGUUGAUUCUUAAAUUGUGTT against Slc6a5 | inactive: 1.13 |
| CCCACUCAAAUCUAUCAAGTT against Otof | inactive: 1.12 |
| GGUUCAGCAAACCUACAAATT against 1100001I19Rik | inactive: -0.412 |
| GGUCUUAAAUAAUCUGGUCTT against Olfr959 | inactive: 0.758 |
| CCUAUGUCACUAAGGCACGTT against Nudt13 | inactive: 0.0547 |
| GGAAGUCCUAUGAUUAAACTT against 2310008M20Rik | inactive: 0.0693 |
| GGAUACAUUCCAGACAUACTT against Map3k2 | inactive: -0.51 |
| CCAUUAAUUACGUGUUUGUTT against Dixdc1 | inactive: 0.568 |
| GGCAUUAAUAUGUCUGACUTT against D1Ertd251e | inactive: -1.9 |
| GGACAAGUCAAUUUGUUGGTT against Zfp36l1 | inactive: 1.11 |
| GCAACCAGAGAAAGUUGAGTT against Scx | inactive: -0.317 |
